Assay results taken from patent publication US8716703B2, “Organic semiconductor transistor” (Fuji Xerox Co., Ltd., priority 2011, dated 2014).

Experiment: Evaluation of charge mobility of the organic semiconductor transistor (saturation region of current-voltage characteristics)
Details: for Charge mobility Immediately after production: transistor immediately after production; for Charge mobility One month after production: transistor stored at 25° C., after a lapse of one month

SMILES	Charge mobility Immediately after production	Charge mobility One month after production
CCCCCCCCc1ccc(-c2ccc(-c3ccc4c(c3)C(C)(C)c3cc(CCCCCC)ccc3-4)s2)cc1 [Exemplary compound 20]	8.83 × 10^−4 cm^2/Vs	6.17 × 10^−4 cm^2/Vs
CCCCCCCCc1ccc(-c2ccc(-c3ccc(-c4ccc5c(c4)C(C)(C)c4cc(CCCCCC)ccc4-5)s3)s2)cc1 [Exemplary compound 21]	9.58 × 10^−4 cm^2/Vs	5.45 × 10^−4 cm^2/Vs
CCCCCCCCc1ccc(-c2ccc(-c3ccc(-c4ccc(-c5ccc6c(c5)C(CCCCCC)(CCCCCC)c5cc(CCCCCC)ccc5-6)s4)s3)s2)cc1 [Exemplary compound 28]	2.15 × 10^−3 cm^2/Vs	7.58 × 10^−4 cm^2/Vs
CCCCCCCCCCc1ccc(-c2ccc(-c3ccc4c(c3)C(C)(C)c3cc(CCCCCC)ccc3-4)s2)cc1 [Exemplary compound 32]	8.98 × 10^−4 cm^2/Vs	5.85 × 10^−4 cm^2/Vs
CCCCCCCCCCc1ccc2c(c1)C(C)(C)c1cc(-c3ccc(-c4ccc(CCCCCCCC)cc4)s3)ccc1-2 [Exemplary compound 34]	8.28 × 10^−4 cm^2/Vs	5.59 × 10^−4 cm^2/Vs
CC(=O)N1C2c3cc4ccccc4cc3C(c3cc4ccccc4cc32)[S+]1[O-] (stereo not shown) [compound 1, 13,6-N-sulfinylacetamidopentacene, reference compound]	7.5 × 10^−4 cm^2/Vs	Not measurable
CC1(C)c2cc(-c3ccc(-c4cccs4)s3)ccc2-c2ccc(-c3ccc(-c4cccs4)s3)cc21 [compound 3, reference compound]	3.5 × 10^−4 cm^2/Vs	8.5 × 10^−7 cm^2/Vs
CC1(C)c2ccccc2-c2ccc(-c3ccc(-c4cccs4)s3)cc21 [compound 4, reference compound]	2.5 × 10^−4 cm^2/Vs	Not measurable
